The results are deposited in PubChem (AID1159506; NCATS, 2015).

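Genome-wide siRNA knockdown in TC32 Ewing sarcoma cells, comparing luciferase light from an NR0B1-promoter reporter with a CMV-promoter reporter 48 hours after transfection. Each siRNA was applied at 20 nM. A z-score of the log NR0B1-over-CMV signal, less the median of siRNAs with the same seed; more negative means a stronger specific loss of the NR0B1 reporter.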

The strongest results of the screen are mostly left out here. Sequences are the guide (antisense) strand, without overhang.

Result for UACGAGAACGGGAACUUCC against GPBP1 was seed-corrected z-score -0.05723. AACAUACUUAACGAUUUGC against ITGA4 gave seed-corrected z-score 0.4633. Result for ACAAUACUCAGCAAGGUCC against LHFPL2 was seed-corrected z-score 0.1952. UUGGAUACAAACUUAGCUC against EFHB gave seed-corrected z-score 0.1895. AAGGUGACAAGAUACAUAC against OR1N1 gave seed-corrected z-score -1.106. UAUGGUGCAUGAUCUAAAC against LONRF1 read seed-corrected z-score 0.1323. Result for UUACUGAUAGAGCAAACUG against PSTPIP2 was seed-corrected z-score -0.3256.

For GUUGUGUCGACAGGGAAGG against GP1BB the result was seed-corrected z-score -0.08845. Result for AUACGGAUUAAGAAGACAC against ZXDB was seed-corrected z-score -0.3674. UCAGGUAGAGGUAUCCAUC against ZNF593 gave seed-corrected z-score -0.2521. UAACAUGGAACAUCCGGGC against BOLA1 gave seed-corrected z-score 0.5049. With UUAGGACUAAACUUAACUG against WDR5B the assay gave seed-corrected z-score 0.5135. UCACUAGUACCAAAGAUGU against CSRNP1 read seed-corrected z-score 0.2631. UAGUGUUCCAGCACGAGUC against DNAH1 read seed-corrected z-score 0.2291.

For UCUGAGUCUAGAGAUUUCU against PDAP1 the result was seed-corrected z-score 1.119. UUCUUGUCUGUCAUGAACC against SHMT1 gave seed-corrected z-score 0.5167. With UUCGCUACAAUAGCGGCAG against DCTN4 the assay gave seed-corrected z-score 0.637. AUAUUUCGAACUUGAAUCC against ATP5C1 read seed-corrected z-score 1.077. For UAGGCAUUCGAACUGGUCC against RPS20 the result was seed-corrected z-score 1.438. Result for AAACGAAUAUCAAUCUCUG against MON2 was seed-corrected z-score 0.8651. With UUAAGGACUAUAGUGUAGG against GRAMD1C the assay gave seed-corrected z-score 1.078.

UUUUAGCUUUGUUCAAUGC against CDC6 gave seed-corrected z-score 0.2343. UCUGGAUUUUCUUGAGUCG against GREM2 read seed-corrected z-score -0.08622. With UGGUGUUUUAAUGACCUCC against HADH the assay gave seed-corrected z-score 1.188. UUGCUUCUAACUUCCGCUC against SDCCAG3 read seed-corrected z-score -1.995. With UGAAUUUCUAGGCCCAAUG against CNKSR1 the assay gave seed-corrected z-score -0.9073. UUCAGGAUCCGCUUGAACU against PDE4C read seed-corrected z-score 0.2046. Result for UUCCGGGUAAAAGCAAGAG against STMN2 was seed-corrected z-score 0.6905.

UGUAUAAUCAGAUACGUUC against ANKHD1-EIF4EBP3 read seed-corrected z-score 0.1604. Result for AUAUUGUCCCAAAACUUCC against PCDHB3 was seed-corrected z-score 0.09088. UUCUGUGUGGUUGUCCUUG against FOXS1 read seed-corrected z-score -1.428. With AUACCGACGAAAAAGUUCC against RNGTT the assay gave seed-corrected z-score -0.5376. UUCAAACCCAAGGAUUUCC against SRRM1 read seed-corrected z-score 0.6831. UAAUAGUCAAAACGAGUGG against INTS8 gave seed-corrected z-score 0.2392. For UUUCUUCUUAUGAUGACUG against LINC00683 the result was seed-corrected z-score 0.08919.

UCUUUAUCAACAAUUCCUC against MAGI2 read seed-corrected z-score 1.047. UCAUUGACUUGUAUUCUGC against PPP1R9A read seed-corrected z-score 0.2089. UGCUCUUCAGUGUCAGUGG against DCLK3 read seed-corrected z-score -0.002179. With UCUGUGGUAACAGAGGAGC against OR10P1 the assay gave seed-corrected z-score -0.08831. For UGCAUUCAAAGGACCUGGG against DLL3 the result was seed-corrected z-score -0.3199. With UUUGCCCUGGUAAUAGACG against NCR3 the assay gave seed-corrected z-score 0.1199. CAGGGUUGCGGUGAUAGGA against NDOR1 gave seed-corrected z-score 0.7769.

With UUUAGCACCUUUGUUCUUC against PDCD11 the assay gave seed-corrected z-score 0.468.